Numbering of substitutions follows the chain as printed. These are yes or no findings as the source states them, for the method shown. Some results given as binding are weak or reduced against the parent protein; the word gives no strength. Blank lines part the entries; values can stand above or below the binder they belong to.
Tests used:
[1] = target: cynomolgus CTLA-4 ECD protein (in house) (Macaca fascicularis (cynomolgus monkey)) (UniProt G7PL88); assay: ELISA, cyno CTLA4 ECD coated
[2] = target: cynomolgus CTLA-4 on transfected cells (Macaca fascicularis (cynomolgus monkey)) (UniProt G7PL88); assay: FACS on cynomolgus CTLA4 expressing cell pool

binding [1]: binds | binding [2]: binds
B1: W3166-z13 (Fc fusion, not shown: a dimerising Fc or GST)
chain: QVQLVESGGGLVQPGGSLRLSCAASGRTFSSYAMGWFRQAPGMEREFVASIRWSDQTTYVPNSVKGRFTISRDNSKNTLYLQMNSLRPEDTAVYYCATGPTRLSFYSGNYRTYDSWGQGTLVTVSS

binding [1]: binds | binding [2]: binds
B2: W3166-z17 (Fc fusion, not shown: a dimerising Fc or GST)
chain: B1 chain with L11V, M43K

— patent publication US20230167177A1
